The whole screen tested about 320,000 compounds, of which about 480 (0.15%) were called active. Inconclusive means that the source gave no clear call. Such entries were picked first, then a sample of the others. Rule as the data show it: active = inhibition above about 26% (passing the limit was not always enough); inconclusive = no clear call, values can overlap the other calls.
Each compound was assayed against Histone deacetylase 3 (Homo sapiens) (UniProt O15379) (assay: HDAC3 deacetylase inhibitors, primary screen, biochemical, fluorescence, cell-free homogeneous (AID 2718)). Conditions: recombinant HDAC3, fluorogenic peptide/trypsin coupled, at 8.3 µM, stronger effect = higher value.

Sequences of proteins named here, by UniProt entry; tags and fusion partners are left off. A change or cut given only in a name is not applied to a line headed by its entry.
UniProt O15379: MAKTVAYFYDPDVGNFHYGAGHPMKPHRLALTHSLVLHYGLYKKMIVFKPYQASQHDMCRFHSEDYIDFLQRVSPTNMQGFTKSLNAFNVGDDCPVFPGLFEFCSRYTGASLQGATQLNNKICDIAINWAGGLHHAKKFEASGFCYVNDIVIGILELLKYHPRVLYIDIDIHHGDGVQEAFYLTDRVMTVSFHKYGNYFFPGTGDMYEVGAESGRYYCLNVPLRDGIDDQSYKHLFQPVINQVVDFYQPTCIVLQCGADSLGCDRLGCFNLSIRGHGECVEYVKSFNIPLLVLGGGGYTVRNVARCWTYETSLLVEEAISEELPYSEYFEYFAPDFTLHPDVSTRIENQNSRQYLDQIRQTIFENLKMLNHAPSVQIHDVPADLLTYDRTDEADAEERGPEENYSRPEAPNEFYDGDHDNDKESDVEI

Compound | inhibition
CCOc1cc(/C=C2\N=C(C)OC2=O)cc(Cl)c1OCC(=O)OC | active: 48.4%
O=C(NCC1CCCO1)/C(=C/c1cn(-c2ccccc2)nc1-c1cccnc1)NC(=O)c1ccccc1 (centres undefined) | inconclusive: 29.6%
O=C(c1cc2cc(Cl)ccc2o1)N1CCCC1 | inactive: -0.745%
Fc1ccccc1N1CCN(C2CCN(Cc3c[nH]c4ccccc34)CC2)CC1 | inactive: -4.64%
COc1ccc(Cn2c(SCc3ccccc3C)nc3cc(OC)c(OC)cc3c2=N)cc1 | inconclusive: 23.7%
COc1cc(/C=C2\SC(=Nc3ccccc3)NC2=O)cc(Cl)c1O | inconclusive: 15.7%
COc1ccc2c(C)cc(N3CCOCC3)nc2c1 | inconclusive: 20%
O=C(CSc1nc2ccsc2c(=O)n1CC1CCC(C(=O)O)CC1)c1ccc(Cl)cc1 (centres undefined) | inactive: 5.32%
CCS(=O)(=O)c1ncc(Cl)c(C(=O)Nc2ccc(S(=O)(=O)N3CCC(C)CC3)cc2)n1 | inconclusive: 19.4%
CCN(c1ccccc1)S(=O)(=O)c1ccc(NC(=S)NC(=O)c2cccs2)cc1 | inconclusive: 15%
CCN(CC)S(=O)(=O)c1ccc(NC(=O)Nc2cccc(C(F)(F)F)c2)cc1 | inconclusive: 21.7%
CC1CCCN(C(=O)COC(=O)c2cc(-c3cccs3)nn2-c2ccccc2)C1 (centres undefined) | inconclusive: 18.7%
Cc1ccc(NS(=O)(=O)c2ccc3c(c2)CC(=O)N3)c(C)c1 | inconclusive: 14.7%
C[C@H](NC(=O)c1nc[nH]c1C(=O)N[C@@H](CCCCNC(=O)OC(C)(C)C)C(=O)OC(C)(C)C)C(=O)OC(C)(C)C | inconclusive: 30.8%
COc1ccc(/C=N/N2CCN(C)CC2)c(OC)c1OC | inconclusive: 14.5%
COC(=O)C1=C(C)NC(C)=C(C(=O)OCC(C)C)C1c1ccccc1[N+](=O)[O-] (centres undefined) | inconclusive: 13.8%
Cc1onc(-c2ccccc2)c1C(=O)N/N=C/c1cccc(O)c1 | inactive: -3.86%
COC(=O)Cc1cc(=O)n2[nH]c(SC)nc2n1 | inactive: -4.49%
COc1cc2c(C(=O)N(C)c3cc(Cl)ccc3OC)cn(C)c(=O)c2cc1OC | inconclusive: 22.1%
O=c1[nH]c(CSc2ccccn2)nc2ccccc12 | inactive: -2.01%
CCOC(=O)C(C)NC(=O)Cn1ncc2c(=O)oc3ccc(C)cc3c21 (centres undefined) | inconclusive: 20.2%
C=CCc1cccc(CNc2nc3ccccc3n2CCC)c1O | inconclusive: 28.6%
CC1Cc2ccccc2N1C(=O)COc1ccc2c(c1)OCO2 (centres undefined) | inactive: 2.16%
COc1ccc(N2CCN(C(=O)CN3CCN(C(c4ccccc4)c4ccccc4)CC3)CC2)cc1 | inactive: -4.17%

Sorted by SMILES length (low to high): some entries from above
Compound | inhibition
O=c1[nH]c(CSc2ccccn2)nc2ccccc12 | inactive: -2.01%
CCOC(=O)C(C)NC(=O)Cn1ncc2c(=O)oc3ccc(C)cc3c21 (centres undefined) | inconclusive: 20.2%
O=C(NCC1CCCO1)/C(=C/c1cn(-c2ccccc2)nc1-c1cccnc1)NC(=O)c1ccccc1 (centres undefined) | inconclusive: 29.6%

Source: PubChem BioAssay AID2718 (Broad Institute, 2010)
